Data: paper PMC10564737, “Structure-based design of a phosphotyrosine-masked covalent ligand targeting the E3 ligase SOCS2” (Nature Communications, 2023)
“And” between values parts separate entries of the source, which are not always exact repeats. Equal values may be shown once. The source gives many values for each of these; only a part stands here.

Amino acid sequences for entries named in this document (tags omitted). Residues count along the entry.
UniProt O14508, 32-198: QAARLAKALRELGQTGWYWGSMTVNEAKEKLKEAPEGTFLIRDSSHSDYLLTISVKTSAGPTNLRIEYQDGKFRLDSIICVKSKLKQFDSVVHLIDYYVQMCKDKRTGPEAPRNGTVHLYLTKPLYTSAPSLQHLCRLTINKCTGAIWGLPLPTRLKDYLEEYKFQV

Molecular target: T1, HiBiT-SOCS2 fusion in HeLa cells (Homo sapiens, UniProt O14508)
T1 construct: encoding SOCS2 (32–198) in pBiT3.1-N expression vector; expressed in transfected cells; host or cells: HeLa
Experiment: Split-NanoLuc CETSA, live-cell mode
Type: cell-based
Parameters: reference not given here
Conditions: 50uM 20hrs
Protocol: One of the challenges with small-molecule binders displaying on-target activity with recombinant proteins, is to translate their utility to a cellular context. […] One of the advantages of CETSA is that target engagement can be monitored without the need for the development of a cell-permeable tracer molecule.
We utilized CETSA in a live-cell mode to evaluate the efficacy and rank the different prodrugs. We treated live HeLa cells with 50 μM compound (prodrugs) for 20 h and monitored Tagg shift as a proxy for the combo of prodrug permeability and unmasking (Fig. 4d). […] The observation could be because the POM group unmasking requires only esterase unlike the reliance of compounds 21–23 on esterase and phosphoramidase for unmasking an aryloxy phosphoramidate group.
N-terminal HiBiT-SOCS2 fusion was generated by encoding SOCS2 (32–198) in pBiT3.1-N expression vector (Promega). The transfection and target engagement assay were performed by modifying a NanoLuc target engagement protocol (Promega) with some small modifications. Briefly, HiBiT-SOCS2 fusion construct was transfected into HeLa cells using FuGENE HD (Promega) according to the manufacturer’s protocol. HiBiT-SOCS2 fusion construct was diluted into Transfection Carrier DNA (Promega) at a mass ratio of 1:100 or 1:10 for permeabilised and live-cell CETSA respectively. FuGENE HD was added at a ratio of 1:3 (μg DNA: μL FuGENE HD). 1 part (vol) of FuGENE HD complexes thus formed were combined with 20 parts (vol) of HeLa cells suspended at a density of 2 × 10^5 cells/mL, followed by incubation in a humidified, 37 °C + 5% CO2 incubator. After 20 h of incubation HeLa cells were detached and resuspended at a density of 2.5 × 10^5 cells/mL in Opti-MEM media without serum or phenol red but supplemented with protease inhibitor cocktail (Roche). Compounds stocks were added to cell suspension to maintain a final DMSO concentration of 1%. For the permeabilised assay format, 96-well PCR plates (Thermo) were pre-treated with digitonin to have a final well concentration of 50 μg/ml. 50 μl Opti-MEM cell suspension was then aliquoted to each well of the 96-well plate. The plates are then covered with microporous tape sheet (Qiagen) prior to incubation in a humidified, 37 °C + 5% CO2 incubator. Post-incubation we heat the PCR plates in 16-point temperature (split across two runs) curve spanning degrees 40-72 °C temperature span (CFX96 Touch Real-Time PCR Detection System, BioRad). The thermal cycler block was allowed to rise to the designated temperatures prior to placement of the PCR plates into the heating block and heat treatment for 3 min. After incubating the plates at room temperature for over 3 min, 50 μl of the Nano-Glo HiBiT Lytic mix (Promega) was added to each well. Samples were mixed by pipetting and placing the plate on an orbital shaker (600 rpm) for 5 min. 20 μl of the samples (in triplicates) were transferred to a AlphaPlate-384 plate (Perkin Elmer). Luminescence was recorded with GloMax Discover Microplate Reader (Promega). To generate apparent Tagg curves, the data is first converted to percent stabilized by relating the observed luminescence to the luminescence of the lowest temperature (40 °C) for that given sample. Data are then fitted to obtain apparent Tagg values using the Boltzmann Sigmoid equation using Graphpad Prism 9.

## O=C(CCl)Nc1cccc(CNC(=O)[C@H](Cc2ccc(OP(=O)(O)O)cc2)NC(=O)Cc2ccc(F)cc2)c1 [MN551]
n=1, temperature point 1 of 16, temperature not given
  Produrg CETSA screening, raw signal: 44774 and 26778 and 30284
n=1, temperature point 2 of 16, temperature not given
  Produrg CETSA screening, raw signal: 44554 and 37931 and 56371
n=1, temperature point 3 of 16, temperature not given
  Produrg CETSA screening, raw signal: 40559 and 36111 and 57202
n=3, Temp, 0C 40
  Produrg CETSA screening, raw signal: 187874 and 194851 and 193056
n=3, Temp, 0C 40.9
  Produrg CETSA screening, raw signal: 177840 and 189177 and 186823
n=3, Temp, 0C 42.9
  Produrg CETSA screening, raw signal: 175062 and 180886 and 183916
n=3, Temp, 0C 45.8
  Produrg CETSA screening, raw signal: 172872 and 173976 and 188111
n=3, Temp, 0C 49.5
  Produrg CETSA screening, raw signal: 227413 and 234476 and 248725
n=3, Temp, 0C 52.4
  Produrg CETSA screening, raw signal: 133609 and 146998 and 149874
n=3, Temp, 0C 54.1
  Produrg CETSA screening, raw signal: 107344 and 100683 and 108494
n=3, Temp, 0C 55
  Produrg CETSA screening, raw signal: 79349 and 95654 and 92417
n=3, Temp, 0C 56
  Produrg CETSA screening, raw signal: 95720 and 103700 and 105998
n=3, Temp, 0C 57.1
  Produrg CETSA screening, raw signal: 87545 and 101422 and 108266
n=3, Temp, 0C 59.2
  Produrg CETSA screening, raw signal: 58885 and 77117
